# The list shows a part of the results.
# Compound: Cc1cc(ccc1-c1ccccc1)C(=O)N1CCCN(CC1)C(=O)CCl [compound 10]
# Assay: probe-labelled cysteine peptide fold change vs DMSO (competition) (log2 fold change); higher = less target engagement (more negative = stronger competition)
# Settings: THP-1, incubation time: 4 h
# 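Also: competitive profiling in live THP-1 cells: cysteine peptides tagged with an iodoacetamide desthiobiotin (IA-DTB) probe, intensity after compound treatment relative to DMSO-treated cells.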
Target,probe-labelled cysteine peptide fold change (10 µM),probe-labelled cysteine peptide fold change (50 µM)
PTRH2_Q9Y3E5_111_QWEYCGQPK (UniProt Q9Y3E5),0.0013,0.034
PTPN9_P43378_338_YGDVPCLDQTR (UniProt P43378),-0.239,-0.197
PSMC1_P62191_58_LPLVTPHTQCR (UniProt P62191),-0.0192,0.104
PTGR1_Q14914_239_IAICGAISTYNR (UniProt Q14914),-0.119,0.126
PTGFRN_Q9P2B2_169_CTAASASPLHTHLALLWEVHR (UniProt Q9P2B2),0.115,-0.0303
PSMA5_P28066_165_GPQLFHMDPSGTFVQCDAR (UniProt P28066),0.0144,0.0728
PTPRJ_Q12913_1294_MHRPLMVQTEDQYVFLNQCVLDIVR (UniProt Q12913),0.0991,0.0715
PTPRC_P08575_1169_STPLLIHCR (UniProt P08575),-0.0815,-0.274
PSMD2_Q13200_459_NECDPALALLSDYVLHNSNTMR (UniProt Q13200),0.171,0.155
PTPN12_Q05209_343_SCLVEGDAK (UniProt Q05209),-0.107,-0.0347
PSPH_P78330_187_IIMIGDGATDMEACPPADAFIGFGGNVIR (UniProt P78330),0.0605,0.373
PSTPIP1_O43586_148_CRDADDAEQAFER (UniProt O43586),0.288,0.343
PTPN6_P29350_480_GLDCDIDIQK (UniProt P29350),-0.0733,0.051
PTPRC_P08575_853_VNAFSNFFSGPIVVHCSAGVGR (UniProt P08575),0.0738,0.109
PSMC2_P35998_377_LCPNSTGAEIR (UniProt P35998),0.0275,0.0409
PSMA3_P25788_42_CKDGVVFGVEK (UniProt P25788),-0.124,-0.702
PTPA_Q15257_202_IDYGTGHEAAFAAFLCCLCK (UniProt Q15257),-0.094,0.556
PSMB5_P28074_111_VIEINPYLLGTMAGGAADCSFWER (UniProt P28074),0.235,0.464
PTK2B_Q14289_661_CWDYDPSDRPR (UniProt Q14289),0.0954,0.138
PTPN1_P18031_226_SGTFCLADTCLLLMDK (UniProt P18031),0.0513,-0.172
PUM3_Q15397_610_GAIILSSLLQSCDLEVANK (UniProt Q15397),0.0674,0.101

Target,probe-labelled cysteine peptide fold change (10 µM),probe-labelled cysteine peptide fold change (50 µM)
PTPRF_P10586_1582_TVDIYGHVTCMR (UniProt P10586),-0.0291,0.131
PSMG2_Q969U7_195_TLYDESCSK (UniProt Q969U7),-0.0156,0.0763
PSMD3_O43242_483_ISFCLDIHNMSVK (UniProt O43242),-0.124,-0.0391
PTPRF_P10586_54_VPEDQTGLSGGVASFVCQATGEPKPR (UniProt P10586),-0.197,-0.86
PSMD1_Q99460_378_NSVCHTATVIANSFMHCGTTSDQFLR (UniProt Q99460),0.086,0.245
PTK2B_Q14289_180_VSEGMALQLGCLELRR (UniProt Q14289),-0.0794,-0.123
PTK2B_Q14289_61_CTVQTEIR (UniProt Q14289),0.21,0.229
PSME4_Q14997_820_DDILQSLTIVHNCLIGSGNLLPPLK (UniProt Q14997),0.41,0.404
PTPN12_Q05209_242_TGAICAIDYTWNLLK (UniProt Q05209),0.193,-0.0209
PUM1_Q14671_1007_GQVFALSTHPYGCR (UniProt Q14671),0.0338,-0.0424
PSMC2_P35998_270_ACLIFFDEIDAIGGAR (UniProt P35998),0.146,0.162
PTPN11_Q06124_567_YSLADQTSGDQSPLPPCTPTPPCAEMR (UniProt Q06124),-0.0966,-0.929
PSMC3_P17980_387_CTDDFNGAQCK (UniProt P17980),0.00316,-0.00903
PSMD1_Q99460_378_NSVCHTATVIANSFMHCGTTSDQFLRDNLEWLAR (UniProt Q99460),0.143,-0.213
PSMC1_P62191_148_DLLEPGCSVLLNHK (UniProt P62191),0.0637,0.0514
PTPRF_P10586_156_TATMLCAAGGNPDPEISWFK (UniProt P10586),-0.318,-0.602
PSMD4_P55036_58_SNPENNVGLITLANDCEVLTTLTPDTGR (UniProt P55036),-0.114,-0.0946
PSMD13_Q9UNM6_182_FLGCVDIK (UniProt Q9UNM6),-0.102,0.096
PTGS1_P23219_158_DCPTPMGTK (UniProt P23219),-0.218,0.261
PSMA6_P60900_115_YGYEIPVDMLCK (UniProt P60900),-0.0458,0.0168
PSMD1_Q99460_659+660_YGAAMALGICCAGTGNK (UniProt Q99460),0.0137,-0.24

Target,probe-labelled cysteine peptide fold change (10 µM),probe-labelled cysteine peptide fold change (50 µM)
PTPN1_P18031_121_CAQYWPQK (UniProt P18031),-0.206,-0.0107
PTCD1_O75127_565_GLVPNLQTFCNLAIGCHRPK (UniProt O75127),-0.0428,-0.142
PSMD9_O00233_216_GLLGCNIIPLQR (UniProt O00233),0.44,0.471
PTPRC_P08575_434_DCLNLDK (UniProt P08575),-0.329,-0.108
PTCD3_Q96EY7_139_DIAEPHIPCLMPEYFEPQIK (UniProt Q96EY7),-0.274,-0.604
PTPRC_P08575_853_RVNAFSNFFSGPIVVHCSAGVGR (UniProt P08575),-0.0401,0.167
PSMD2_Q13200_616_VQQLLHICSEHFDSK (UniProt Q13200),0.306,0.321
PTPRC_P08575_1261_VKQDANCVNPLGAPEK (UniProt P08575),-0.224,-0.555
PTDSS1_P48651_347_QYYAYLTDTQCKR (UniProt P48651),0.000125,-0.0263
PTPRC_P08575_1072_HGDQEICAQYWGEGK (UniProt P08575),-0.067,0.374
PSMC3_P17980_387+396_CTDDFNGAQCK (UniProt P17980),-0.125,0.00299
PTPN12_Q05209_724_CDHPAGGIHYEMCIECPPTFSDK (UniProt Q05209),-0.215,-0.292
PSMD12_O00232_109_MVQQCCTYVEEITDLPIK (UniProt O00232),0.0825,0.283
PSMD2_Q13200_205_EIVPYNMAHNAEHEACDLLMEIEQVDMLEK (UniProt Q13200),-0.388,-0.307
PSMA7_O14818_70_KICALDDNVCMAFAGLTADAR (UniProt O14818),0.492,-0.299
PSMD10_O75832_107_GAQVNAVNQNGCTPLHYAASK (UniProt O75832),0.213,0.0526
PSMB8_P28062_7_ALLDVCGAPR (UniProt P28062),-0.068,-0.273
PSMC6_P62333_193_AVASQLDCNFLK (UniProt P62333),-0.219,-0.243
PTPRC_P08575_610_SCNLDEQQELVERDDEK (UniProt P08575),-0.427,-1.12
PTPN6_P29350_453_QESLPHAGPIIVHCSAGIGR (UniProt P29350),0.347,0.269
PSME3_P61289_92_LDECEEAFQGTK (UniProt P61289),-0.166,-0.324

# Some of the entries above in another layout:
Target	probe-labelled cysteine peptide fold change (10 µM)	probe-labelled cysteine peptide fold change (50 µM)
PSPH_P78330_187_IIMIGDGATDMEACPPADAFIGFGGNVIR (UniProt P78330)	0.0605	0.373
PTK2B_Q14289_661_CWDYDPSDRPR (UniProt Q14289)	0.0954	0.138
PSMC1_P62191_148_DLLEPGCSVLLNHK (UniProt P62191)	0.0637	0.0514

# Further results:

Target,probe-labelled cysteine peptide fold change (10 µM),probe-labelled cysteine peptide fold change (50 µM)
PTGFRN_Q9P2B2_655_CMVTAWSPVR (UniProt Q9P2B2),-0.11,0.168
PSMD7_P51665_116_RYCPNSVLVIIDVKPK (UniProt P51665),-0.082,0.475
PSMA6_P60900_78_ITENIGCVMTGMTADSR (UniProt P60900),0.214,-0.195
PSMD14_O00487_238_SWMEGLTLQDYSEHCK (UniProt O00487),-0.044,-0.396
PSMD2_Q13200_448_SGALLACGIVNSGVR (UniProt Q13200),0.0886,0.207
PTK2B_Q14289_44_VCFYSNSFNPGK (UniProt Q14289),0.206,0.0256
PTPN1_P18031_344_EETQEDKDCPIK (UniProt P18031),-0.41,-0.973
PUS10_Q3MIT2_223_SLFEVSVVFAHPETVEDCHFLAAICPDCFKPAK (UniProt Q3MIT2),0.147,-0.0417
PSMD2_Q13200_251_CALGVFR (UniProt Q13200),0.0325,0.275
PSMG2_Q969U7_103_SKPFCEK (UniProt Q969U7),-0.44,0.28
PTPRA_P18433_668_KEEECESYTVR (UniProt P18433),0.0723,0.188
PSME4_Q14997_459_TYPALETLTEPHQLTATLSCVIGVAR (UniProt Q14997),0.121,0.105
PTER_Q96BW5_38_TLTHEHLAMTFDCCYCPPPPCQEAISK (UniProt Q96BW5),-0.121,-0.663
PUM1_Q14671_1102_AVLIDEVCTMNDGPHSALYTMMK (UniProt Q14671),-0.239,0.0523
PSMG1_O95456_235_IPAILYLCYTDVMK (UniProt O95456),0.174,0.692
PSMC5_P62195_112_NIDINDVTPNCR (UniProt P62195),-0.146,-0.155
PSMD12_O00232_74_MCYEAK (UniProt O00232),0.0642,0.189
PUM2_Q8TB72_813_GHVLPLALQMYGCR (UniProt Q8TB72),-0.0109,-0.15
PSMA7_O14818_63+70_ICALDDNVCMAFAGLTADAR (UniProt O14818),0.144,-0.0633
PSMD8_P48556_173_CYYFDYK (UniProt P48556),0.194,0.631
